The nature of the data set: Anti-DPPH free radical test (spectrophotometry at 517 nm). Type of data set: biochemical. The note with it: DPPH 5.080 mg/100 ml; for Absorption value of reaction liquid (A): 30 min, 517 nm; for Reaction liquid absorption value: Compound 1, 2 0.61 mg/100 ml, Compound 3 0.64 mg/100 ml. From the text:
Anti-DPPH Free Radical Test
2,2-diphenyl-1-picrylhydrazyl (DPPH) free radical spectrophotometry is a simple method for screening antioxidants, the principle of which is using the characteristic absorption peak of DPPH solution at 517 nm. When free radical scavengers existed, single electron pairing between free radical scavenger and DPPH allowed the absorption of DPPH disappeared, and its decoloring degree and accepted electron number present as quantitative relation, and the antioxidant activity of samples can be evaluated through the amount of cleared DPPH, so the spectrophotometry can be used for quantitative analysis.
DPPH was accurately weighed and placed in a volumetric flask, and diluted to 100 ml with 95% ethanol. The absorbance (A) of DPPH was measured at 517 nm.
DPPH standard curve was shown in FIG. 1, the linear equation of which was as follows: y=0.219x−0.0285; r=0.9994.
DPPH was accurately weighed and placed in a 100 ml volumetric flask, and diluted to 100 ml with 95% ethanol to produce the DPPH solution.
Preparation of Test Drug Solution: the Test Drug was Accurately Weighed and Placed in a 100 ml volumetric flask, dissolved with 20 ml of 95% ethanol, adjusted to pH 7.5 and diluted to 100 ml with 95% ethanol.
5.0 ml of DPPH solution and 2.0 ml test drug solution were taken and placed in a 10 ml volumetric flask, fully shaken at room temperature for a certain time followed by determination of absorption value (A) at 517 nm.
Formula for calculating DPPH free radical scavenging ability of test drug, E (mgDPPH/mg):
Formula for calculating DPPH free radical scavenging ability of test drug, V (mmolDPPH/mmol): […]
Background: The DPPH test is a chemical assay of radical scavenging.

[1] abbreviates: test drug C 0.152 (Edaravone), 0.153 (Compound 1, 2), 0.159 (Compound 3) mg/100 ml.
The mark [2] stands for this setting: test drug C 0.304 (Edaravone), 0.305 (Compound 1, 2), 0.318 (Compound 3) mg/100 ml.
Where [3] appears, read: test drug C 0.608 (Edaravone), 0.610 (Compound 1, 2), 0.635 (Compound 3) mg/100 ml.
[4] abbreviates: test drug C 1.215 (Edaravone), 1.220 (Compound 1, 2), 1.270 (Compound 3) mg/100 ml.
Setting [5] is: test drug C 2.430 (Edaravone), 2.440 (Compound 1, 2), 2.540 (Compound 3) mg/100 ml.

“2-methyl-benzo[d][1,3]oxazin[5-b]pyrazole-5-one [Compound 1]”: the “Absorption value of reaction liquid (A)” value runs as follows: under setting [1], 0.744; under setting [2], 0.732; under setting [3], 0.712; under setting [4], 0.589; under setting [5], 0.486. The “Reaction liquid absorption value” is, setting by setting: (reaction time 30 min) 0.712; (reaction time 60 min) 0.701; (reaction time 90 min) 0.678; (reaction time 120 min) 0.654; (reaction time 150 min) 0.641.
In the case of `Cc1cc(=O)n(-c2ccccc2C#N)[nH]1` [Compound 3, 1-(2-cyanophenyl)-3-methylpyrazol-5-one], the “Absorption value of reaction liquid (A)” value is, setting by setting: under setting [1], 0.729; under setting [2], 0.695; under setting [3], 0.650; under setting [4], 0.440; under setting [5], 0.052. Further, the “Reaction liquid absorption value” is, setting by setting: (reaction time 30 min) 0.650; (reaction time 60 min) 0.648; (reaction time 90 min) 0.646; (reaction time 120 min) 0.647; (reaction time 150 min) 0.645.
In the case of `CC1=NN(c2ccccc2)C(=O)C1` [Edaravone, edaravone, reference compound], the “Absorption value of reaction liquid (A)” value under setting [1] worked out at 0.728; the “Absorption value of reaction liquid (A)” value under setting [2] was determined as 0.699; the “Absorption value of reaction liquid (A)” value under setting [3] came out at 0.633; the “Absorption value of reaction liquid (A)” value under setting [4] was 0.397; the “Absorption value of reaction liquid (A)” value under setting [5] worked out at 0.115.
On to `Cc1cc2oc(=N)c3ccccc3n2n1` [TR, 2-methyl-5-imino-benzo[d][1,3]oxazin[5-b]pyrazole], for which the “Absorption value of reaction liquid (A)” value by setting is: under setting [1], 0.756; under setting [2], 0.753; under setting [3], 0.748; under setting [4], 0.717; under setting [5], 0.692. The “Reaction liquid absorption value” was found to be 0.748 (reaction time 30 min); 0.735 (reaction time 60 min); 0.720 (reaction time 90 min); 0.705 (reaction time 120 min); 0.693 (reaction time 150 min).
